{"source": "patent US20030124590A1", "about": "“Carbohydrate response element binding protein and uses thereof” (priority 2001, published 2003)", "test_system": "AMPK", "experiment": "AMPK activity in hepatocytes (SAMS peptide)", "format": "cell-based, rat", "details": "fatty acid added to high glucose medium", "experimental": "The extract was centrifuged at 15,800·g for 15 min, and the resulting supernatant solution was transferred to a fresh tube, adjusted to 10% with polyethylene glycol 8000 ([…], France), and incubated on ice for 20 min. Following centrifugation at 15,800·g for 15 min, the pellet was suspended in 100 μl buffer A. […] A. (2000) Proc. Natl. Acad. Sci. USA. 97, 4023-4028).", "note": "At least one compound was matched to its structure with a doubt left.", "data": [{"molecule": "CCCCCCCCCCCCCCCC(=O)O", "note": "[palmitate]", "values": [{"measurement": "increase of AMPK activity compared to absence of fatty acid", "value": "about two-fold"}]}]}
